Assay results: doi:10.1101/765990 (bioRxiv, 2019)

By UniProt entry, the sequences of proteins in these tests, tags left out. Where a name states a change or a piece, a line headed by the entry shows the natural chain unless it says otherwise. Chains listed by the source or under a name are the forms on record and can include a tag or linker. Residues count along the entry.
UniProt Q01590: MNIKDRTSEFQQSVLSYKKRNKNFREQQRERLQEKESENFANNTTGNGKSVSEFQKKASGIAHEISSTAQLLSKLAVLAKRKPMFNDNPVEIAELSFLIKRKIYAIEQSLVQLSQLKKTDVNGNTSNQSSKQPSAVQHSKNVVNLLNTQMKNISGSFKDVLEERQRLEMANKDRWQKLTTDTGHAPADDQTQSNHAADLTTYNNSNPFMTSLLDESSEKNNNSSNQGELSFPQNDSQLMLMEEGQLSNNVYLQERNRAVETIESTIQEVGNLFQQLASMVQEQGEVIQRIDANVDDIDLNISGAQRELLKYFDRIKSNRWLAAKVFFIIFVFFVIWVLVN
GST-tagged SNARE-motif of wild-type Sed5p: residues 211-320 of Q01590
UniProt P22214: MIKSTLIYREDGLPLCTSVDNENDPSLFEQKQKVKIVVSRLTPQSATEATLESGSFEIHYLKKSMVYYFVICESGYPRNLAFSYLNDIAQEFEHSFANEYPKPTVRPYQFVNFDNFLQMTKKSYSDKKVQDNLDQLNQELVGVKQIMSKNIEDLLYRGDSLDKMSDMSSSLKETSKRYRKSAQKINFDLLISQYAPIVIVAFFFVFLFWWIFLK

How the values were obtained:
Experiment in all cases: pull-down
[1] = target: GST-sed5p(L276P) SNARE-motif (budding yeast) (UniProt Q01590)
[2] = target: GST-sed5p(L272P) SNARE-motif (budding yeast) (UniProt Q01590)
[3] = target: GST-tagged SNARE-motif of wild-type Sed5p (budding yeast) (UniProt Q01590)

Measured: binding

purified recombinant Sec22p (from UniProt P22214)
binds: all assays above

Results are given in words; binding and its absence hold for the method and conditions named. A result given as binding can be weak or reduced; the word gives no strength.
